These are yes or no findings as the source states them, for the method shown. Binding seen in cells or lysates may run through a third protein. A result given as binding can be weak or reduced; the word gives no strength.
Biological target: myc-tagged ITM2A (integral membrane protein 2A) (UniProt O43736)
Test: co-IP; HEK293 co-transfected with two plasmids, lysed 24 h later in 50 mM Tris HCl pH 7.5, 150 mM NaCl, 1% NP-40, 0.05% sodium deoxycholate, 1 mM EDTA; anti-tag antibody (anti-HA or anti-myc) and Dynabeads Protein G at 4 °C; Western blot for the other tag

Amino acid sequences for entries named in this document (tags omitted). A change or cut given only in a name is not applied to a line headed by its entry.
UniProt O43736: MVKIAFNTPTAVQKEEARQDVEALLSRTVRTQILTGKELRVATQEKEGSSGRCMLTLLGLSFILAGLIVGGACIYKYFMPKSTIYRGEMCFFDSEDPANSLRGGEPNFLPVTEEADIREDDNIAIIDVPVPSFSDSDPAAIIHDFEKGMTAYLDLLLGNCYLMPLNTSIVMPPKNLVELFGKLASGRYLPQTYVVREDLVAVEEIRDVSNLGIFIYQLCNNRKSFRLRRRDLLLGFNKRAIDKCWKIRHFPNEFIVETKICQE
UniProt Q13635: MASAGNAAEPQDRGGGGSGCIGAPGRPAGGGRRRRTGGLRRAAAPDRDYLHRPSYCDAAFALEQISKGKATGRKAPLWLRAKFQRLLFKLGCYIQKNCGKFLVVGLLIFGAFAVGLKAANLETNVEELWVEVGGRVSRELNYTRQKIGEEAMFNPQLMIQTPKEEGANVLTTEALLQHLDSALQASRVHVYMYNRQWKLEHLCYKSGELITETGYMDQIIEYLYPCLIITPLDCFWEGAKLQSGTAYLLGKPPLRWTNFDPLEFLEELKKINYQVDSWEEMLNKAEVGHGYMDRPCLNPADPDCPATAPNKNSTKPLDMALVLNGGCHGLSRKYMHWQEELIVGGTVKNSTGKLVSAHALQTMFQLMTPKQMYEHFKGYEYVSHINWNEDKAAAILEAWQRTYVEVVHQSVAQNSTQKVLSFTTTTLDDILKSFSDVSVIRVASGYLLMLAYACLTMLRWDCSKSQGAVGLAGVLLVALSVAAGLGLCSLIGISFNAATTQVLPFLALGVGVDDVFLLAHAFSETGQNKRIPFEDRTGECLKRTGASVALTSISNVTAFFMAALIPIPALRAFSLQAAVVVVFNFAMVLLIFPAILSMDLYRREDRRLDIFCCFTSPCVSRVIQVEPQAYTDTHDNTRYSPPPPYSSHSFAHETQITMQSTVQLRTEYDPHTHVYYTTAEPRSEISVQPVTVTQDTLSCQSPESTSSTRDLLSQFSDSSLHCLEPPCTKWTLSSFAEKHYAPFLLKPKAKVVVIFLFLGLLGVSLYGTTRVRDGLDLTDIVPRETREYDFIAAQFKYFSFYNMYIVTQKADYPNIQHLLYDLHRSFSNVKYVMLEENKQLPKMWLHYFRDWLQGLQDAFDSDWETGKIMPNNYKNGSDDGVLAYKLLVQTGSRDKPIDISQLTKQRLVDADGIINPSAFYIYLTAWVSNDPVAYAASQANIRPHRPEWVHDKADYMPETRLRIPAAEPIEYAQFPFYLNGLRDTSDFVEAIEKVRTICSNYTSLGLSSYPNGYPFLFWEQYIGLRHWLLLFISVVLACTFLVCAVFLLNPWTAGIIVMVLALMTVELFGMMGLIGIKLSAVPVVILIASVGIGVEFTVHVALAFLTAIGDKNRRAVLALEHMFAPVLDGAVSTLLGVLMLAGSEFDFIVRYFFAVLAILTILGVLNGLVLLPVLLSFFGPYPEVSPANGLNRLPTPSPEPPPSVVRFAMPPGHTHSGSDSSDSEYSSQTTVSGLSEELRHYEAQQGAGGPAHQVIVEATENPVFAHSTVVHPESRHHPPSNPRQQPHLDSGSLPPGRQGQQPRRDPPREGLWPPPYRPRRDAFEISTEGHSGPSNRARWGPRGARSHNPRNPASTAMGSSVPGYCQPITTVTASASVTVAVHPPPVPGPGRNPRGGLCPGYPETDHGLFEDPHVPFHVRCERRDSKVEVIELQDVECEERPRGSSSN

| binding | Substance |
| --- | --- |
| binds | PTCH1ΔML (eGFP-tagged) (from UniProt Q13635) (receptor) |
| binds | PTCH1ΔMLΔCTD (eGFP-tagged) (from UniProt Q13635) (receptor) |

From article PMC8394137
